Four substances from paper PMC11020826 can be followed below.

No constants are given. Whether binding was seen depends on the method and setting. For some assays here: In cells and extracts the contact can be indirect. For some assays here: Binding calls can cover weak binding; strength is not graded here. For some assays here: Tags and fused reporters may be left off the sequences shown.

One assay has as its target T1, nYFP-PYE (Arabidopsis) (UniProt Q9SN74).
T1 sequence: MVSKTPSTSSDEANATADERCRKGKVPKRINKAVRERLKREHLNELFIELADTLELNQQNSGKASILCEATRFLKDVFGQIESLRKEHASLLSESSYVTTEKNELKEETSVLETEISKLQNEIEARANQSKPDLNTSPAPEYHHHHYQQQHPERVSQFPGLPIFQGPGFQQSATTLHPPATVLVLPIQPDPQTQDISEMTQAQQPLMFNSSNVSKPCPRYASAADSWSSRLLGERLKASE
Briefly: split reporter; BiFC 2in1 vector system (pBiFC-2in1-NN, N-terminal nYFP and cYFP fusions) in transiently transformed tobacco leaf epidermis cells; mRFP as transformation control.

Assay [1] addresses T2, POPEYE (PYE), full length, yeast two-hybrid fusion (Arabidopsis) (UniProt Q9SN74).
T2 sequence: T1 sequence
Kind of assay: two-hybrid; targeted Y2H in yeast; GAL4-AD and GAL4-BD fusions; 10-fold dilution series spotted on SD-LWH + 2 mM 3-AT.

The target in a further assay is T3, nYFP-ILR3 (Arabidopsis) (UniProt Q9FH37).
T3 sequence: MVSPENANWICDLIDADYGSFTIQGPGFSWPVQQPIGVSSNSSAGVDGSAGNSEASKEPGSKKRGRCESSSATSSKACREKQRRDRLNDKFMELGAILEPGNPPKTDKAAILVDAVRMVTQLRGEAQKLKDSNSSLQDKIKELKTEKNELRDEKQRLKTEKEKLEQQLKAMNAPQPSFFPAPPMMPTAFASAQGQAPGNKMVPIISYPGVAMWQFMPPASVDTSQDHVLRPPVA
Briefly: split reporter; BiFC 2in1 vector system (pBiFC-2in1-NN, N-terminal nYFP and cYFP fusions) in transiently transformed tobacco leaf epidermis cells; mRFP as transformation control.

Assay [2] deals with T4, PYE-C-mCherry (Arabidopsis) (UniProt Q9SN74).
T4 sequence: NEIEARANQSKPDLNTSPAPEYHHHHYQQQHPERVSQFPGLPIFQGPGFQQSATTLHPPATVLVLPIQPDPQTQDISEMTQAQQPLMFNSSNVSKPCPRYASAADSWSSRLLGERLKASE
Briefly: FRET or BRET; FRET-APB (acceptor photobleaching) in nuclei of transiently transformed tobacco leaf epidermis cells; GFP donor, mCherry acceptor; ß-estradiol-induced; n = 15 nuclei; negative control donor only.

In assay [3] the target is T5, PYE-N-mCherry (Arabidopsis) (UniProt Q9SN74).
T5 sequence: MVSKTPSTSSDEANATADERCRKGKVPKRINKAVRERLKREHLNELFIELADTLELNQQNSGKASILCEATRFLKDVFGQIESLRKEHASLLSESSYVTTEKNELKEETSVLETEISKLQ
Described as above.

The target in assay [4] is T6, PYE-mCherry (Arabidopsis) (UniProt Q9SN74).
T6 sequence: T1 sequence
Described as above.

The target in assay [5] is T7, PYE-ΔbHLH-mCherry (Arabidopsis) (UniProt Q9SN74).
T7 sequence: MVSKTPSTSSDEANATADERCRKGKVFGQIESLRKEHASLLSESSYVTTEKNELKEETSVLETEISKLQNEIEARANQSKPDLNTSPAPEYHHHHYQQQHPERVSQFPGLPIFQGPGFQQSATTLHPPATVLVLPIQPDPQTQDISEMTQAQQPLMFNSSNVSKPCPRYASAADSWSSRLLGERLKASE
The description is as above.

As to “cYFP-OLV-ΔTGIYY (Arabidopsis) (domain or fragment)”, in the assay with nYFP-PYE (Arabidopsis), the binding entry was “no binding”.
As for “OLV-ΔTGIYY, yeast two-hybrid fusion (Arabidopsis) (domain or fragment)”, the binding entry in assay [1] is “no binding”.
cYFP-OLV (Arabidopsis): the binding entry with nYFP-ILR3 (Arabidopsis) was “no binding”; in the assay with nYFP-PYE (Arabidopsis) it was “binds”.
OLV-GFP (Arabidopsis): the binding entry in assay [2], in assay [3], in assay [4] and in assay [5] was “binds” in each case.
